{"source": "the supplement of paper PMC10849652", "note": "This is one part of the list.", "data": [{"compound": "CC1=C(SC2=C1C(=N[C@H](C3=NN=C(N32)C)CC(=O)N)C4=CC=C(C=C4)Cl)C", "assay": "log2 fold change, soluble protein after heating vs DMSO (PISA); higher = thermal stabilisation; K562 lysate, 10 uM; active = over 0.2 and 3.5 SD of the protein, either way, in both replicates (recomputed)", "how_it_was_run": "(§1)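 The values are log-two fold changes in thermal stability compared with solvent controls and come from duplicates. They were obtained by TMTpro 16plex LC-MS/MS, with channel sums equalised, on the supernatant after 21,000xg for 90 min. That supernatant came from crude K562 extract at 1 mg/mL protein treated with 10 μM compound for 30 min, heated for 3 min across 48°C-58°C, pooled and brought to 0.5% NP-40 at 4°C.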", "values": [{"target": "GGA2 (UniProt Q9UJY4)", "log2 fold change": "inactive: 0.011"}, {"target": "GPHN isoform 2 (UniProt Q9NQX3)", "log2 fold change": "inactive: 0.005"}, {"target": "GINS4 (UniProt Q9BRT9)", "log2 fold change": "inactive: 0"}, {"target": "GOLIM4 (UniProt O00461)", "log2 fold change": "inactive: 0.038"}, {"target": "GIPC1 (UniProt O14908)", "log2 fold change": "inactive: 0.02"}, {"target": "GPBP1 isoform 2 (UniProt Q86WP2)", "log2 fold change": "inactive: -0.089"}, {"target": "GINS3 (UniProt Q9BRX5)", "log2 fold change": "inactive: -0.051"}, {"target": "GON4L (UniProt Q3T8J9)", "log2 fold change": "inactive: 0"}, {"target": "GNE isoform 2 (UniProt Q9Y223)", "log2 fold change": "inactive: 0.006"}, {"target": "GPS2 (UniProt Q13227)", "log2 fold change": "inactive: 0"}, {"target": "GPR89A (UniProt B7ZAQ6)", "log2 fold change": "inactive: 0.005"}, {"target": "GOLGA3 (UniProt Q08378)", "log2 fold change": "inactive: 0.015"}, {"target": "GP1BB isoform 2 (UniProt P13224)", "log2 fold change": "inactive: 0.007"}, {"target": "GMPS (UniProt P49915)", "log2 fold change": "inactive: -0.001"}, {"target": "GNA11 (UniProt P29992)", "log2 fold change": "inactive: -0.011"}, {"target": "GNAQ (UniProt P50148)", "log2 fold change": "inactive: 0.042"}, {"target": "GGCX (UniProt P38435)", "log2 fold change": "inactive: -0.027"}, {"target": "GOSR2 isoform 2 (UniProt O14653)", "log2 fold change": "inactive: 0.034"}, {"target": "GMDS (UniProt O60547)", "log2 fold change": "inactive: -0.014"}, {"target": "GNPTG (UniProt Q9UJJ9)", "log2 fold change": "inactive: -0.126"}, {"target": "GNPDA1 (UniProt P46926)", "log2 fold change": "inactive: -0.006"}, {"target": "GOT2 (UniProt P00505)", "log2 fold change": "inactive: 0.017"}, {"target": "GOLT1B (UniProt Q9Y3E0)", "log2 fold change": "inactive: 0.014"}, {"target": "GOLGA7 (UniProt Q7Z5G4)", "log2 fold change": "inactive: -0.098"}, {"target": "GLMN (UniProt Q92990)", "log2 fold change": "inactive: 0"}, {"target": "GOT1 (UniProt P17174)", "log2 fold change": "inactive: -0.027"}, {"target": "GMIP (UniProt Q9P107)", "log2 fold change": "inactive: -0.04"}, {"target": "GOLPH3 (UniProt Q9H4A6)", "log2 fold change": "inactive: 0.018"}, {"target": "GPN1 isoform 5 (UniProt Q9HCN4)", "log2 fold change": "inactive: 0.027"}, {"target": "GPATCH1 (UniProt Q9BRR8)", "log2 fold change": "inactive: -0.034"}, {"target": "GNL3 (UniProt Q9BVP2)", "log2 fold change": "inactive: 0.087"}, {"target": "GLIPR2 (UniProt Q9H4G4)", "log2 fold change": "inactive: 0.005"}, {"target": "GMPPA (UniProt Q96IJ6)", "log2 fold change": "inactive: -0.016"}, {"target": "GORAB (UniProt Q5T7V8)", "log2 fold change": "inactive: -0.002"}, {"target": "GPRIN1 (UniProt Q7Z2K8)", "log2 fold change": "inactive: 0.011"}, {"target": "GNB1 (UniProt P62873)", "log2 fold change": "inactive: -0.051"}, {"target": "GIGYF1 (UniProt O75420)", "log2 fold change": "inactive: 0.057"}, {"target": "GLUD2 (UniProt P49448)", "log2 fold change": "inactive: 0.031"}, {"target": "GOLGB1 (UniProt Q14789)", "log2 fold change": "inactive: -0.017"}]}, {"compound": "CC1=C2C(=CC=C1)N=C(N(C2=O)C3=CC=CC=C3C)CN4C=NC5=C(N=CN=C54)N", "assay": "log2 fold change, soluble protein after heating vs DMSO (PISA); higher = thermal stabilisation; K562 lysate, 10 uM; active = over 0.2 and 3.5 SD of the protein, either way, in both replicates (recomputed)", "how_it_was_run": "as §1", "values": [{"target": "GGA2 (UniProt Q9UJY4)", "log2 fold change": "inactive: -0.085"}, {"target": "GPHN isoform 2 (UniProt Q9NQX3)", "log2 fold change": "inactive: 0.011"}, {"target": "GINS4 (UniProt Q9BRT9)", "log2 fold change": "inactive: -0.007"}, {"target": "GOLIM4 (UniProt O00461)", "log2 fold change": "inactive: 0.035"}, {"target": "GIPC1 (UniProt O14908)", "log2 fold change": "inactive: -0.024"}, {"target": "GPBP1 isoform 2 (UniProt Q86WP2)", "log2 fold change": "inactive: -0.07"}, {"target": "GINS3 (UniProt Q9BRX5)", "log2 fold change": "inactive: 0.035"}, {"target": "GON4L (UniProt Q3T8J9)", "log2 fold change": "inactive: 0.008"}, {"target": "GNE isoform 2 (UniProt Q9Y223)", "log2 fold change": "inactive: 0.023"}, {"target": "GPS2 (UniProt Q13227)", "log2 fold change": "inactive: -0.039"}, {"target": "GPR89A (UniProt B7ZAQ6)", "log2 fold change": "inactive: 0.076"}, {"target": "GOLGA3 (UniProt Q08378)", "log2 fold change": "inactive: -0.004"}, {"target": "GP1BB isoform 2 (UniProt P13224)", "log2 fold change": "inactive: 0.08"}, {"target": "GMPS (UniProt P49915)", "log2 fold change": "inactive: 0.02"}, {"target": "GNA11 (UniProt P29992)", "log2 fold change": "inactive: -0.001"}, {"target": "GNAQ (UniProt P50148)", "log2 fold change": "inactive: 0.023"}, {"target": "GGCX (UniProt P38435)", "log2 fold change": "inactive: -0.038"}, {"target": "GOSR2 isoform 2 (UniProt O14653)", "log2 fold change": "inactive: 0.013"}, {"target": "GMDS (UniProt O60547)", "log2 fold change": "inactive: 0.042"}, {"target": "GNPTG (UniProt Q9UJJ9)", "log2 fold change": "inactive: -0.098"}, {"target": "GNPDA1 (UniProt P46926)", "log2 fold change": "inactive: -0.02"}, {"target": "GOT2 (UniProt P00505)", "log2 fold change": "inactive: -0.023"}, {"target": "GOLT1B (UniProt Q9Y3E0)", "log2 fold change": "inactive: 0.004"}, {"target": "GOLGA7 (UniProt Q7Z5G4)", "log2 fold change": "inactive: 0.019"}, {"target": "GLMN (UniProt Q92990)", "log2 fold change": "inactive: 0.004"}, {"target": "GOT1 (UniProt P17174)", "log2 fold change": "inactive: -0.009"}, {"target": "GMIP (UniProt Q9P107)", "log2 fold change": "inactive: -0.04"}, {"target": "GOLPH3 (UniProt Q9H4A6)", "log2 fold change": "inactive: 0.022"}, {"target": "GPN1 isoform 5 (UniProt Q9HCN4)", "log2 fold change": "inactive: 0.007"}, {"target": "GPATCH1 (UniProt Q9BRR8)", "log2 fold change": "inactive: 0.005"}, {"target": "GNL3 (UniProt Q9BVP2)", "log2 fold change": "inactive: 0.006"}, {"target": "GLIPR2 (UniProt Q9H4G4)", "log2 fold change": "inactive: 0.014"}, {"target": "GMPPA (UniProt Q96IJ6)", "log2 fold change": "inactive: -0.049"}, {"target": "GORAB (UniProt Q5T7V8)", "log2 fold change": "inactive: -0.02"}, {"target": "GPRIN1 (UniProt Q7Z2K8)", "log2 fold change": "inactive: 0.039"}, {"target": "GNB1 (UniProt P62873)", "log2 fold change": "inactive: -0.038"}, {"target": "GIGYF1 (UniProt O75420)", "log2 fold change": "inactive: -0.067"}, {"target": "GLUD2 (UniProt P49448)", "log2 fold change": "inactive: 0.265"}, {"target": "GOLGB1 (UniProt Q14789)", "log2 fold change": "inactive: 0.025"}]}]}
